The list shows a part of the results.
Assay: compound fluorescence in dual-transfected Am2.2 cells, confirmation, artefact control for beta2AR agonist internalization project, cell-based, FAP fluorogen, flow cytometry, cherry pick 1 (AID 588765);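 further: low percent response here flags compound autofluorescence meaning a false positive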
Conditions: fluorescence counterscreen, measured here: FL8 channel fluorescence, at 10 µM, stronger effect = lower value

SMILES | percent response FL8
CN(C)C(=O)c1cc([N+](=O)[O-])cc2c1-c1c(cc([N+](=O)[O-])cc1[N+](=O)[O-])C2=O | 86.2%

— PubChem BioAssay AID588765 (NMMLSC, 2011)
